Measurements published in PMC7784283.
These are yes or no findings as the source states them, for the method shown. Binding seen in cells or lysates may run through a third protein. Some results given as binding are weak or reduced against the parent protein; the word gives no strength. For part of these data: Sequences can lack the tags named with a protein.

The chains behind the UniProt entries cited, without tags or fusion partners. Residues count along the entry.
UniProt P16671: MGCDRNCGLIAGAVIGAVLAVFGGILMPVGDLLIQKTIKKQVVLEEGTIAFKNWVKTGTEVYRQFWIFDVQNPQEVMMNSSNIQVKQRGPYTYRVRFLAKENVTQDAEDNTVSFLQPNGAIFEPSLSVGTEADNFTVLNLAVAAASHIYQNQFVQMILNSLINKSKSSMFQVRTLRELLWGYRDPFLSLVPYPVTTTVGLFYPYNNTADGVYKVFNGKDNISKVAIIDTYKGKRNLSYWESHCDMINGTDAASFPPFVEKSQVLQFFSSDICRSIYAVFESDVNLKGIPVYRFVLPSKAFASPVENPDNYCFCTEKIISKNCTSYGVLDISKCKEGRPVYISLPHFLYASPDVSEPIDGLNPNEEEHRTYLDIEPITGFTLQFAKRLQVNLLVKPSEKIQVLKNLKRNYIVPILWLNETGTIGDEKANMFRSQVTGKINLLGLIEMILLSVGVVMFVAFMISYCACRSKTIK
UniProt Q08857: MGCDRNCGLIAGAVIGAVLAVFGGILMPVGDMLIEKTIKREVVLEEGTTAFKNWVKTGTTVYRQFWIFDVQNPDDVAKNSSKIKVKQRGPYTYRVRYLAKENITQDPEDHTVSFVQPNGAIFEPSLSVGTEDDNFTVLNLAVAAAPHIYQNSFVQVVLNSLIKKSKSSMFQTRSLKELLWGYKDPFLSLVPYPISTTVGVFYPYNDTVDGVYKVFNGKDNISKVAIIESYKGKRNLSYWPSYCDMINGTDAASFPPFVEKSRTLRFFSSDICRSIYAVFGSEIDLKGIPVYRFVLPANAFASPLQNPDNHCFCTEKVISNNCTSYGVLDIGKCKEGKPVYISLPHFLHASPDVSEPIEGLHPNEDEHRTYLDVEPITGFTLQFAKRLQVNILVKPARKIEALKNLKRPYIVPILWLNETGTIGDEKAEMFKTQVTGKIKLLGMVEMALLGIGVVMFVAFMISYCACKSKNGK
UniProt P29351: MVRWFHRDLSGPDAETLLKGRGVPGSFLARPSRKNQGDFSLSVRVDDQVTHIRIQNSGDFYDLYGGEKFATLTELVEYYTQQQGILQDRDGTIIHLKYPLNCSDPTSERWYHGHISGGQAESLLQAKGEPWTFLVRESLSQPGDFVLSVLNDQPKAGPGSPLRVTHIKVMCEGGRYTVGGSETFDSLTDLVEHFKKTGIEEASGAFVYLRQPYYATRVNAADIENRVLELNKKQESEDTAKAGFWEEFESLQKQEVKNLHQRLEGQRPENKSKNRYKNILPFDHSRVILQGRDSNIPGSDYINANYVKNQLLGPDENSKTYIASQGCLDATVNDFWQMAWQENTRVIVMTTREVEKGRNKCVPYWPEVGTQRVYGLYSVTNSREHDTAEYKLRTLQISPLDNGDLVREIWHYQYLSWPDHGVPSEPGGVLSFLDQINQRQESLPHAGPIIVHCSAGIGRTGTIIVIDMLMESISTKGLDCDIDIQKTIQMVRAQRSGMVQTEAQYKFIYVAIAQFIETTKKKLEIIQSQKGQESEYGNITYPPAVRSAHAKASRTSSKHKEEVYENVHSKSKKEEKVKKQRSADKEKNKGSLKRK
UniProt Q9Y336, residues 18-463: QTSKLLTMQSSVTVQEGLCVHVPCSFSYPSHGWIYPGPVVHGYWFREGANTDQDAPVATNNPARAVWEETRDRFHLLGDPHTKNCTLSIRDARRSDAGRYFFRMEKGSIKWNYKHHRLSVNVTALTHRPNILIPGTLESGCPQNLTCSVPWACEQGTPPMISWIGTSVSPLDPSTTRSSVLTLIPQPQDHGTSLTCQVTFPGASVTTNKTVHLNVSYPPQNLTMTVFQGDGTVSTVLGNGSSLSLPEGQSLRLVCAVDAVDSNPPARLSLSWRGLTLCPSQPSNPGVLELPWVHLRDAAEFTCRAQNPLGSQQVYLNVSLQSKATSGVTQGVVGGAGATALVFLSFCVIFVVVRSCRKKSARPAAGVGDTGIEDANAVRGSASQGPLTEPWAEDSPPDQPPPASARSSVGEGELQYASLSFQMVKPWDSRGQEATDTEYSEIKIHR

Experiments:
[1] = biological target: T1, Siglec-E (endogenous, peritoneal macrophages) (mouse (endogenous in peritoneal macrophages)) (UniProt Q91Y57); experiment: co-IP; endogenous proteins; lysates of peritoneal macrophages (WT; for VAV also SE-/-) treated with oxLDL 50 µg/ml for indicated times; precipitated with anti-Siglec-E or anti-VAV antibody; blot and densitometry
T1 sequence: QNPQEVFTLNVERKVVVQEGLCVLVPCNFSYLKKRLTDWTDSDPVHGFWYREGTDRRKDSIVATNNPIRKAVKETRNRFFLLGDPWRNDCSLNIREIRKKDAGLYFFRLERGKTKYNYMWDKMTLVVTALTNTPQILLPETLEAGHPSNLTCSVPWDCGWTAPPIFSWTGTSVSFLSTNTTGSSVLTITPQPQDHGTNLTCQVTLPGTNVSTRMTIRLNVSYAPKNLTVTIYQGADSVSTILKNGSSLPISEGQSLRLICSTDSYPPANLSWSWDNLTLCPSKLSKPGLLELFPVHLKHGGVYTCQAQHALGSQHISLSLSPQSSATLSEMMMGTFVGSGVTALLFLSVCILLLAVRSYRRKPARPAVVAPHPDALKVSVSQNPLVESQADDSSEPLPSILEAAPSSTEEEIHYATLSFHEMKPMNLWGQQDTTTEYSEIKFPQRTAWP

[2] = biological target: N-terminal HA-tagged human CD36 (HA-CD36) (human) (UniProt P16671); experiment: co-IP; HEK293T cells co-transfected with Flag-Siglec-9 and HA-CD36 for 48 h, without or with sialidase for 30 min; lysate precipitated with anti-HA affinity resin; blot
[3] = biological target: T1, Siglec-E (endogenous, peritoneal macrophages) (mouse (endogenous in peritoneal macrophages)); experiment: co-IP; endogenous proteins; lysates of WT mouse peritoneal macrophages treated without or with sialidase 0.1 unit/ml for 30 min; precipitated with control IgG, anti-Siglec-E or anti-CD36 antibody, 18 h, 4 °C, protein A/G magnetic beads; blot
[4] = biological target: N-terminal Flag tagged mouse CD36 (Flag-CD36) (mouse) (UniProt Q08857); experiment: co-IP; HEK293T cells co-transfected with Flag-CD36 and WT or mutant HA-SE; lysate (1% Triton X-100, 0.1% SDS, 150 mM NaCl) precipitated with anti-FLAG M2 affinity resin, 2 h, 4 °C; blot; also after P-3FAX-Neu5Ac 200 µM for 66 h or sialidase 0.1 unit/ml for 30 min
[5] = biological target: CD36 (endogenous, peritoneal macrophages) (mouse (endogenous in peritoneal macrophages)) (UniProt Q08857); experiment: co-IP; endogenous proteins; lysates of WT mouse peritoneal macrophages treated without or with sialidase 0.1 unit/ml for 30 min; precipitated with control IgG, anti-Siglec-E or anti-CD36 antibody, 18 h, 4 °C, protein A/G magnetic beads; blot

In the case of “Src homology region 2 domain-containing phosphatase-1 (SHP-1) (from UniProt P29351 1-595) (enzyme)”, the binding [1] is reported as “binds”.

With “C-terminal Myc-Flag-tagged Siglec-9 (Flag-Siglec-9) (from UniProt Q9Y336 18-463) (receptor)” the binding [2] was “binds”.

“CD36 (endogenous, peritoneal macrophages) (from UniProt Q08857 1-472) (receptor)” was tested, and the binding [3] was “binds”.

B1: C-terminal HA-tagged wild type Siglec-E (HA-SE) (receptor, UniProt Q91Y57 19-467)
chain: QNPQEVFTLNVERKVVVQEGLCVLVPCNFSYLKKRLTDWTDSDPVHGFWYREGTDRRKDSIVATNNPIRKAVKETRNRFFLLGDPWRNDCSLNIREIRKKDAGLYFFRLERGKTKYNYMWDKMTLVVTALTNTPQILLPETLEAGHPSNLTCSVPWDCGWTAPPIFSWTGTSVSFLSTNTTGSSVLTITPQPQDHGTNLTCQVTLPGTNVSTRMTIRLNVSYAPKNLTVTIYQGADSVSTILKNGSSLPISEGQSLRLICSTDSYPPANLSWSWDNLTLCPSKLSKPGLLELFPVHLKHGGVYTCQAQHALGSQHISLSLSPQSSATLSEMMMGTFVGSGVTALLFLSVCILLLAVRSYRRKPARPAVVAPHPDALKVSVSQNPLVESQADDSSEPLPSILEAAPSSTEEEIHYATLSFHEMKPMNLWGQQDTTTEYSEIKFPQRTAWP
For B1, the binding [4] was “binds”.

B2: sialic acid binding defective mutant of Siglec-E (Siglec-E R126D) with HA-tag (receptor, UniProt Q91Y57 19-467)
chain: QNPQEVFTLNVERKVVVQEGLCVLVPCNFSYLKKRLTDWTDSDPVHGFWYREGTDRRKDSIVATNNPIRKAVKETRNRFFLLGDPWRNDCSLNIREIRKKDAGLYFFDLERGKTKYNYMWDKMTLVVTALTNTPQILLPETLEAGHPSNLTCSVPWDCGWTAPPIFSWTGTSVSFLSTNTTGSSVLTITPQPQDHGTNLTCQVTLPGTNVSTRMTIRLNVSYAPKNLTVTIYQGADSVSTILKNGSSLPISEGQSLRLICSTDSYPPANLSWSWDNLTLCPSKLSKPGLLELFPVHLKHGGVYTCQAQHALGSQHISLSLSPQSSATLSEMMMGTFVGSGVTALLFLSVCILLLAVRSYRRKPARPAVVAPHPDALKVSVSQNPLVESQADDSSEPLPSILEAAPSSTEEEIHYATLSFHEMKPMNLWGQQDTTTEYSEIKFPQRTAWP
With B2 the binding [4] was “binds”.

B3: Siglec-E (endogenous, peritoneal macrophages) (receptor, UniProt Q91Y57 19-467)
chain: QNPQEVFTLNVERKVVVQEGLCVLVPCNFSYLKKRLTDWTDSDPVHGFWYREGTDRRKDSIVATNNPIRKAVKETRNRFFLLGDPWRNDCSLNIREIRKKDAGLYFFRLERGKTKYNYMWDKMTLVVTALTNTPQILLPETLEAGHPSNLTCSVPWDCGWTAPPIFSWTGTSVSFLSTNTTGSSVLTITPQPQDHGTNLTCQVTLPGTNVSTRMTIRLNVSYAPKNLTVTIYQGADSVSTILKNGSSLPISEGQSLRLICSTDSYPPANLSWSWDNLTLCPSKLSKPGLLELFPVHLKHGGVYTCQAQHALGSQHISLSLSPQSSATLSEMMMGTFVGSGVTALLFLSVCILLLAVRSYRRKPARPAVVAPHPDALKVSVSQNPLVESQADDSSEPLPSILEAAPSSTEEEIHYATLSFHEMKPMNLWGQQDTTTEYSEIKFPQRTAWP
With B3 the binding [5] was “binds”.
